Measurements as given in PubChem BioAssay AID504444 (National Center for Advancing Translational Sciences (NCATS), 2011).
In all, about 360,000 compounds went through this assay and about 7,500 (2.1%) were called active. The inconclusive results got no clear call from the source; some entries with a clear call stand among them for comparison. Calls follow the shape of the dose curve; as a rule, active = well fitted inhibition curve with a large enough effect; inconclusive = small, poorly fitted or top-dose-only effect, or effect the other way; inactive = flat fitted curve, though single readings scatter. Potencies beside an inconclusive call are fits to weak or partial responses and may not hold up.
% is scaled to controls: 0 for no effect and ±100 for the full control effect; potency is read from the fitted curve at half-maximal effect.

Assay: Nrf2 qHTS screen for inhibitors; also: nearly all actives have a fitted effect of over 60% in size
Conditions: A549 ARE-Fluc reporter, luciferase luminescence, 18-24 h; activity change, negative = inhibition: at 46 µM (top of the series)
In short: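 A549 ARE_Fluc cells, 5000/well, 5% FBS OPTI-MEM; compounds in dose-response, 18-24 h at 37 °C/5% CO2; CellTiter-Fluor viability read (Ex 405/Em 525), then BugLite luciferase luminescence = Nrf2 activity.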
For `O=C(c1cc2c(s1)-c1ccccc1OC2)N1CCC2(CC1)OCCO2`, the Potency was inconclusive: 0.82 µM [activator, full curve]. For `COc1ccc(NS(=O)(=O)c2ccc3c(c2)oc(=O)n3C)cc1Cl`, the Potency was active: 14.6 µM. For `O=c1c2ccccc2nc(/C=C/c2ccco2)n1-c1ccccc1O`, the Potency was inconclusive: 29.1 µM [falling, single point]. With `COc1cc([C@@H]2c3cc4c(cc3[C@H](O)[C@H]3COC(=O)[C@@H]23)OCO4)cc(OC)c1OC` the Potency was inconclusive: 9.2 µM [activator, partial curve]. With `Cc1ccsc1C(=O)C1CCCN(Cc2cnc(N3CCOCC3)s2)C1` (centres undefined) the Potency was active: 18.4 µM. For `C=C1C(=O)OC2CC3(C)OC3CCC(C)=CC(OC(C)=O)C12` (centres undefined), the Potency was inconclusive: 16.4 µM [falling, partial curve]. In the case of `O=C(C1CCN(S(=O)(=O)c2ccc(Br)s2)CC1)N1CCN(c2ccc(F)cc2)CC1`, the Potency is reported as inconclusive: 18.4 µM [falling, single point]. In the case of `O=C(Nc1ccc2nc(SCC(=O)N3CCCc4ccccc43)sc2c1)c1ccccc1F`, the Potency is reported as inconclusive: 25.9 µM [falling, single point]. With `Cc1cc2c(cc1C)-n1c(-c3ccccc3)c3c(=O)n(C)c(=O)n(C)c3c1C(c1ccco1)N2` (centres undefined) the Potency was inconclusive: 25.9 µM [falling, single point]. In the case of `CC(=O)OC1CC(OC2C(O)CC(OC3C(O)CC(OC4CCC5(C)C(CCC6C5CCC5(C)C(C7=CC(=O)OC7)CCC65O)C4)OC3C)OC2C)OC(C)C1OC1OC(CO)C(O)C(O)C1O` (centres undefined), the Potency is reported as active: 0.0366 µM. With `Cc1cc(OC(C)C(=O)NCC(O)c2ccccc2)c2c3c(c(=O)oc2c1)CCCC3` (centres undefined) the Potency was inconclusive: 20.6 µM [falling, partial curve, poor fit]. In the case of `CC(C)(O)C(=O)Nc1ccc([N+](=O)[O-])c(C(F)(F)F)c1`, the Potency is reported as inconclusive: 29.1 µM [falling, single point]. In the case of `COc1ccc2[nH]c3c(c2c1)CCN=C3C`, the Potency is reported as inconclusive: 14.6 µM [falling, partial curve, poor fit]. With `CCCCCCn1c(=O)c(C(=O)Nc2c(C)n(C)n(-c3ccccc3)c2=O)c(O)c2ccccc21` the Potency was inconclusive: 1.84 µM [falling, partial curve, poor fit]. With `C=C1C(=O)[C@@]23C[C@H]4[C@@H]5[C@@]6(C)CCC[C@@]57[C@@H]2[C@@H](O)[C@@H]1C[C@H]3[C@H]7N4C6` the Potency was active: 23.1 µM. For `COC(=O)C1=C(c2ccc(OC)c(OC)c2)C[C@@H]2CC[C@H]1N2C(=O)NCCO`, the “activity change, negative = inhibition” value was inactive: 8.45%. For `COC(=O)C1=C(c2ccc(F)cc2OCc2ccccc2)C[C@@H]2CC[C@H]1N2C(=O)NCc1cccc(OC)c1`, the Potency was inconclusive: 25.9 µM [falling, single point]. With `Cc1ccc(-n2c(O)c(C=N)c(=O)n(-c3ccc(C)cc3)c2=O)cc1` the Potency was inconclusive: 29.1 µM [falling, single point]. With `CC(C)(C)NS(=O)(=O)c1ccc(OCC(=O)N2CCN(Cc3ccccc3)CC2)cc1` the Potency was inconclusive: 20.6 µM [falling, partial curve]. For `CCCCNC(=O)c1c(N)n(CCCOC)c2nc3ccccc3nc12`, the Potency was inconclusive: 29.1 µM [falling, single point]. In the case of `Cc1ccc(S(=O)(=O)N2CCCCC2)cc1NC(=O)CSc1ncnc2ccccc12`, the Potency is reported as inconclusive: 20.6 µM [falling, single point]. For `Cc1ccc(Cn2nc(C(=O)Nc3ccc(Br)cc3)cc2C)cc1`, the Potency was inconclusive: 14.6 µM [activator, partial curve]. In the case of `COC(=O)C(O)(c1ccc(N(C)C(=O)c2cccs2)cc1)C(F)(F)F` (centres undefined), the Potency is reported as inconclusive: 20.6 µM [falling, partial curve, poor fit]. With `CCOC(=O)[C@]12Cc3cc(Cl)ccc3[C@H]1N(Cc1ccccc1)C(=O)c1ccccc12` the Potency was inconclusive: 18.4 µM [falling, single point]. In the case of `CCOc1ccc(NC(=S)NC2CC3CCC(C2)N3Cc2ccco2)cc1` (centres undefined), the Potency is reported as inconclusive: 6.51 µM [activator, single point]. In the case of `O=C1CC(c2ccc(F)cc2)c2c(c3ccccc3oc2=O)O1` (centres undefined), the “activity change, negative = inhibition” value is reported as inactive: 5.68%. In the case of `CCN(CC(=O)Nc1ccccc1C(F)(F)F)C(=O)CCSc1ccc(F)cc1`, the Potency is reported as inconclusive: 23.1 µM [falling, partial curve]. In the case of `CC(C)c1ccc(N2C(=O)NC(=O)/C(=C\C=C\c3ccco3)C2=O)cc1`, the Potency is reported as inconclusive: 29.1 µM [falling, single point]. In the case of `Cc1ccc(NP(=O)(Oc2ccccc2)Oc2ccccc2)cc1`, the Potency is reported as inconclusive: 1.84 µM [activator, partial curve]. In the case of `CC(=O)N1N=C(c2c(O)n(C)c(=O)n(C)c2=O)CC1c1ccccc1` (centres undefined), the Potency is reported as inconclusive: 23.1 µM [falling, partial curve, poor fit]. With `CC[C@]12C=CCN3CCC4(c5cc(Br)c(OC)cc5N(C)C4[C@@](O)(C(=O)OC)[C@@H]1OC(C)=O)C32` (some centres undefined) the Potency was inconclusive: 1.16 µM [falling, full curve, poor fit]. With `COC(=O)C1=C(c2ccccc2OCc2ccccc2)C[C@@H]2CC[C@H]1N2C(=O)NCc1ccc(OC)cc1` the Potency was inconclusive: 23.1 µM [falling, single point]. For `N#Cc1cc2c(nc1SCC(=O)Nc1ccc(F)c(Cl)c1)C1CCN2CC1`, the “activity change, negative = inhibition” value was inactive: 18.5%. For `O=C(c1ccccc1F)N1CCC2(CC1)OCCO2`, the Potency was inconclusive: 0.058 µM [activator, full curve, poor fit]. With `COc1ccc(N2C(=O)NC(=O)/C(=C\c3cn(C)c4ccccc34)C2=O)cc1` the “activity change, negative = inhibition” value was inactive: 19.7%. For `C=C[C@@]12CN(C)[C@H]3[C@H]1[C@@]1(C(=O)Nc4ccccc41)C1CC2[C@@H]3CO1`, the “activity change, negative = inhibition” value was inactive: 5.17%. For `O=C(COc1ccc2ccccc2c1)N1CCN(Cc2c[nH]c3ccccc23)CC1`, the “activity change, negative = inhibition” value was inactive: 5.11%. With `C/C1=C\[C@@H](C)C/C=C/[C@H]2[C@@H]3O[C@]3(C)[C@@H](C)[C@H]3[C@H](Cc4c[nH]c5ccccc45)NC(=O)[C@]32C(=O)/C=C/C(=O)[C@@H]1O` the Potency was inconclusive: 8.2 µM [falling, partial curve]. For `COc1cc(O)cc2c1C(=O)O[C@@H](C)CCCC(=O)CCCCC2`, the Potency was inconclusive: 16.4 µM [activator, single point]. For `COc1ccccc1NC(=O)N1CCN(c2nnc(C)c3c(C)n(-c4ccc(Cl)cc4)nc23)CC1`, the Potency was inconclusive: 3.26 µM [falling, single point]. In the case of `C/C(N)=C(/C#N)C(=O)CSc1nc2cc(Cl)ccc2c(=O)n1-c1ccc(C)cc1`, the Potency is reported as inconclusive: 20.6 µM [falling, single point]. In the case of `COC(=O)C1=C(c2ccc(F)cc2OCc2ccccc2)C[C@@H]2CC[C@H]1N2C(=O)NCc1ccccc1C(F)(F)F`, the Potency is reported as inconclusive: 23.1 µM [falling, partial curve, poor fit]. With `O=C(Cn1nc(-c2ccccc2)ccc1=O)N1CCC2(CC1)OCCO2` the Potency was inconclusive: 23.1 µM [activator, partial curve, poor fit]. For `CC12CC[C@H]3[C@@H](CCC4(O)C[C@H](O)CCC34/C=N/NC(=O)Cc3ccccc3)C1(O)CCC2C1=CC(=O)OC1` (some centres undefined), the Potency was inconclusive: 6.51 µM [falling, partial curve, poor fit]. With `C[C@@H]1CN([C@H](C)CO)C(=O)c2cc(NC(=O)Nc3ccc(C(F)(F)F)cc3)ccc2O[C@H]1CN(C)S(=O)(=O)c1cccs1` the Potency was inconclusive: 20.6 µM [falling, single point]. For `COc1cccc(CNC(=O)c2cc3c(-c4ccccc4F)nn(C)c3s2)c1`, the Potency was inconclusive: 16.4 µM [falling, single point]. In the case of `CCOc1cc2c(cc1OCC)-n1cccc1C(c1ccc(OC)c(OC)c1)NC2` (centres undefined), the “activity change, negative = inhibition” value is reported as inactive: -13.1%. In the case of `Cc1oc(-c2ccccc2Cl)nc1CN1C(=O)CN=C(c2ccccc2)c2cc(Cl)ccc21`, the Potency is reported as inconclusive: 25.9 µM [falling, single point]. In the case of `O=[N+]([O-])/C=C/c1c(Cl)cccc1Cl`, the “activity change, negative = inhibition” value is reported as inactive: -25.6%. With `COc1cc(C2c3cc4c(cc3CC3COC(=O)C32)OCO4)cc(OC)c1OC` (centres undefined) the Potency was inconclusive: 23.1 µM [activator, single point]. For `C=C[C@H]1CN2CC[C@H]1C[C@@H]2[C@@H](O)c1ccnc2ccccc12`, the Potency was inconclusive: 32.6 µM [activator, partial curve, poor fit]. With `Nc1ncnc2c1ncn2[C@@H]1O[C@H](COP(=O)(O)CP(=O)(O)O)[C@@H](O)[C@H]1O` the “activity change, negative = inhibition” value was inactive: -19.6%. For `Clc1ccc2c(c1)C(OC1CN3CCC1CC3)c1ccccc1CS2` (centres undefined), the “activity change, negative = inhibition” value was inactive: 19.3%. In the case of `COc1cc2c(cc1O)[C@@H]1Cc3ccc(OC)c(O)c3CN1CC2`, the Potency is reported as inconclusive: 29.1 µM [falling, single point]. In the case of `Cc1onc(-c2ccccc2Cl)c1C(=O)OCC(=O)c1ccc2c(c1)OCCO2`, the Potency is reported as inconclusive: 29.1 µM [falling, single point]. In the case of `O=C(c1ccc(Cl)cc1)C1CCCN(Cc2ccc3ncccc3c2)C1` (centres undefined), the Potency is reported as inconclusive: 13 µM [falling, partial curve]. For `C/C(=N\NC(=O)CN1CCCCC1)c1cccc([N+](=O)[O-])c1`, the Potency was inconclusive: 29.1 µM [activator, single point]. In the case of `O=c1[nH]c(=O)n(CCc2ccc(F)cc2)c(O)c1C=NCc1ccc2c(c1)OCO2`, the Potency is reported as inconclusive: 3.26 µM [activator, single point]. In the case of `Oc1ccccc1/C=N/NP(=S)(c1ccccc1)c1ccccc1`, the Potency is reported as inconclusive: 20.6 µM [activator, partial curve, poor fit].
